At least one structure is not confirmed: it was looked up by name or label, or the drawing left a doubt.
What was measured:
[1] = cited from earlier work
[2] = Diffusion of a fluorescent probe in swollen gelatin gel (FRAP); type: physicochemical; conditions: for diffusion coefficient in gelatin: room temperature
Description: To assess the stability of DTPA[Gd(III)] in the gelatin coating, the diffusion of a fluorescence probe in gelatin was studied by the technique of fluorescence recovery after photobleaching (FRAP). The instrument and data analysis scheme are described in Kim, S. H. and Yu, H., J. Phys. Chem. 1992, 96, 4034, which is hereby fully incorporated by reference. Fluorescein was used as the fluorescence probe due, in part, to its molecular size being roughly the same as that of DTPA[Gd(III)].
The focus of the study was to examine the possible retardation effects of gelatin concentration and cross-link density on the diffusion, which was determined at room temperature, i.e., below the gel point of gelatin. The diffusion of fluorescein probe slows down with the increase of gelatin concentration. The diffusion coefficient decreases from 1.5×10^−10 to 9×10^−12 m^2s^−1 when the concentration of gelatin increases from 9% to 40%. […] Accordingly, the probe diffusion is more likely controlled by the concentration of gelatin rather than the cross-link density. On the other hand, the cross-link density may determine the swelling ratio of gelatin, i.e., the concentration of gelatin in aqueous solution.
Without intending to be limited by or restricted to any particular scientific theory, it appears that based upon the diffusion coefficient data, it may be possible to estimate how long will it take for DTPA[Gd(III)] or other paramagnetic-metal-ion/chelate complexes to diffuse out of the gelatin coating. For example, if the thickness of the gelatin coating is 60 μm, and the diffusion coefficient is 9×10^ m^2s^−1, DTPA may diffuse out of the coating in about 67 seconds. In the MRI experiments, the samples were already soaked in water for 12 hours before MRI test. […] Based on the MRI experiments, however, it appears that some fraction of DTPA[Gd(III)] remained in the gel. […]

Compound | stability constant [1] | diffusion coefficient in gelatin ([2]; gelatin concentration 9%) | diffusion coefficient in gelatin ([2]; gelatin concentration 40%) | fluorescence signal after gelatin films were soaked in water ([2]; soaked in water for 18 hours, cross-linked and not cross-linked films)
O=C([O-])CN(CCN(CC(=O)[O-])CC(=O)O)CCN(CC(=O)[O-])CC(=O)O.[Gd+3] [DTPA-Gd(III)] | 10^23 |  |  | 
O=C1OC2(c3ccc(O)cc3Oc3cc(O)ccc32)c2ccccc21 [fluorescein] |  | 1.5×10^−10 m^2s^−1 | 9×10^−12 m^2s^−1 | still fluorescence signal

From US20040253292A1, “MR-signal emitting coatings” (Wisconsin Alumni Research Foundation, priority 2003, published 2004)
